In patent publication US8017807B2, “Tetrahydroxy compound, method for preparing the tetrahydroxy compound, and photoreceptor using the tetrahydroxy compound” (Ricoh Company Limited, priority 2005, dated 2011):

Test: Crosslinked outermost layer of photoreceptor from methanol coating liquid; image formation
Method: Preparation of Crosslinked Charge Transport Layer Using Sol-Gel Method
The following components were mixed.
The mixture was agitated for one hour at room temperature to perform a reaction. Then 53.4 mg of tris(2,4-pentanedionate)aluminum (III) was added to the mixture to prepare a coating liquid including methanol as a solvent.
The coating liquid was coated on the above-prepared charge transport layer by a spray coating method and then dried to form an outermost layer with a thickness of 2 μm. The photoreceptor was heated for 1 hour at 130° C. to crosslink the outermost layer.
The photoreceptor was set in the main body of the image forming apparatus (IMAGIO NEO) to produce images. The resultant images had good image qualities.
The procedure for preparation of the outermost layer in Applied Example 1 was repeated except that the compound of Example 1 was replaced with each of the comparative compounds (6) to (9).

Row | SMILES | Appearance of coated outermost layer (spray-coated on charge transport layer) | Charge transport property (photoreceptor with crosslinked outermost layer, images produced in IMAGIO NEO)
1 | CCc1ccc(N(c2ccc(CCO)cc2)c2ccc(CCO)cc2)cc1C [Comp. compound (8)] | opaque due to occurrence of phase separation | –
2 | Cc1ccc(N(c2ccc(C)cc2)c2ccc(C=C(c3ccc(OCC(O)CO)cc3)c3ccc(OCC(O)CO)cc3)cc2)cc1 (centres unmarked) [Compound of Ex. 1, N-{4-[2,2-bis(4-(2,3-dihydroxypropyloxy)phenyl)vinyl]phenyl}-N,N-bis(4-tolyl)amine] | – | good charge transport property
